# The other results are listed elsewhere or left out. Repeats are few or missing, and single values can be far off.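 Imaging used 1,536-well plates; nuclei positive for cleaved PARP by antibody were divided by total DNA-stained nuclei to yield the apoptosis fraction. Doses for screening kept most cells viable, and cell lines differ markedly in resting and induced cleaved-PARP levels.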
# Tests used:
# Test in all cases: cleaved PARP positive nuclei fraction relative to DMSO control; melanoma cells; higher = more apoptosis
# Details in all cases: library dose: low library concentration; 72 h
# [1] = tested on: 501Mel
# [2] = tested on: A101D
# [3] = tested on: A2058
# [4] = tested on: A375
# [5] = tested on: C32
# [6] = tested on: CBRC013 (line from a melanoma biopsy)
# [7] = tested on: CBRC014 (line from a melanoma biopsy)
# [8] = tested on: CBRC016 (line from a melanoma biopsy)
# [9] = tested on: CBRC017 (line from a melanoma biopsy)
smiles,measurement,setting,value
"CCc1ccc(CCOc2ccc(CC3SC(=O)NC3=O)cc2)nc1 (configuration not stated) [pioglitazone] + COC(=O)c1sccc1S(=O)(=O)Nc1ccc(Nc2ccccc2)cc1OC [GSK0660] (first compound 2 µM, partner dose 1 µM)",cleaved PARP positive nuclei fraction,[1],125%
same,cleaved PARP positive nuclei fraction,[2],145%
same,cleaved PARP positive nuclei fraction,[3],86%
same,cleaved PARP positive nuclei fraction,[4],72.5%
same,cleaved PARP positive nuclei fraction,[5],86.6%
same,cleaved PARP positive nuclei fraction,[6],162%
same,cleaved PARP positive nuclei fraction,[7],103%
same,cleaved PARP positive nuclei fraction,[8],74%
same,cleaved PARP positive nuclei fraction,[9],74.1%
"COC(=O)c1sccc1S(=O)(=O)Nc1ccc(Nc2ccccc2)cc1OC + O=c1cc(-c2cccc3c2Sc2ccccc2S3)oc(N2CCOCC2)c1 [KU55933] (first compound 1 µM, partner dose 1 µM)",cleaved PARP positive nuclei fraction,[1],102%
same,cleaved PARP positive nuclei fraction,[2],105%
same,cleaved PARP positive nuclei fraction,[3],67%
same,cleaved PARP positive nuclei fraction,[4],72.6%
same,cleaved PARP positive nuclei fraction,[5],152%
same,cleaved PARP positive nuclei fraction,[6],46.1%
same,cleaved PARP positive nuclei fraction,[7],96.9%
same,cleaved PARP positive nuclei fraction,[8],37.6%
same,cleaved PARP positive nuclei fraction,[9],130%
"Oc1nc(-c2ccc(C(F)(F)F)cc2)nc2c1CSCC2 + CC(C)CCN1c2nc(Nc3cc(F)c(O)c(F)c3)ncc2N(C)C(=O)C1C [BID1870] (first compound 2 µM, partner dose 0.2 µM)",cleaved PARP positive nuclei fraction,[1],92.2%
same,cleaved PARP positive nuclei fraction,[2],177%
same,cleaved PARP positive nuclei fraction,[3],156%
same,cleaved PARP positive nuclei fraction,[4],27.1%
same,cleaved PARP positive nuclei fraction,[5],136%
same,cleaved PARP positive nuclei fraction,[6],132%
same,cleaved PARP positive nuclei fraction,[7],91.4%
same,cleaved PARP positive nuclei fraction,[8],43.3%
same,cleaved PARP positive nuclei fraction,[9],77.9%
"CCc1ccc(CCOc2ccc(CC3SC(=O)NC3=O)cc2)nc1 (configuration not stated) [pioglitazone] + CCN(CC)CCCCNc1ncc2cc(-c3cc(OC)cc(OC)c3)c(NC(=O)NC(C)(C)C)nc2n1 [PD173074] (first compound 2 µM, partner dose 0.1 µM)",cleaved PARP positive nuclei fraction,[1],163%
same,cleaved PARP positive nuclei fraction,[2],310%
same,cleaved PARP positive nuclei fraction,[3],43.6%
same,cleaved PARP positive nuclei fraction,[4],67.5%
same,cleaved PARP positive nuclei fraction,[5],25.8%
same,cleaved PARP positive nuclei fraction,[6],64.5%
same,cleaved PARP positive nuclei fraction,[7],84.4%
same,cleaved PARP positive nuclei fraction,[8],63.2%
same,cleaved PARP positive nuclei fraction,[9],70.2%
"O=C1NC(=O)/C(=C/c2ccc(-c3ccc(F)cc3O)o2)S1 + O=c1cc(-c2cccc3c2Sc2ccccc2S3)oc(N2CCOCC2)c1 [KU55933] (first compound 1 µM, partner dose 1 µM)",cleaved PARP positive nuclei fraction,[1],81.3%
same,cleaved PARP positive nuclei fraction,[2],86%
same,cleaved PARP positive nuclei fraction,[3],212%
same,cleaved PARP positive nuclei fraction,[4],82.3%
same,cleaved PARP positive nuclei fraction,[5],83.8%
same,cleaved PARP positive nuclei fraction,[6],36.2%
same,cleaved PARP positive nuclei fraction,[7],91.4%
same,cleaved PARP positive nuclei fraction,[8],39.5%
same,cleaved PARP positive nuclei fraction,[9],84.4%
"CN(NC(=O)CC(=O)NN(C)C(=S)c1ccccc1)C(=S)c1ccccc1 + CCCCCCCCCCCC1=C(O)C(=O)C=C(O)C1=O [Embelin] (first compound 0.006 µM, partner dose 1.2 µM)",cleaved PARP positive nuclei fraction,[1],438%
same,cleaved PARP positive nuclei fraction,[2],122%
same,cleaved PARP positive nuclei fraction,[3],105%
same,cleaved PARP positive nuclei fraction,[4],751%
same,cleaved PARP positive nuclei fraction,[5],144%
same,cleaved PARP positive nuclei fraction,[6],73.7%
same,cleaved PARP positive nuclei fraction,[7],477%
same,cleaved PARP positive nuclei fraction,[8],363%
same,cleaved PARP positive nuclei fraction,[9],136%
"O=C(O)c1ccc(-c2c[nH]c3ncc(-c4ccccc4)cc23)cc1C1CCCC1 + Cn1cc(/C=C2\C(=O)Nc3cccnc32)c2ccccc21 [GW441756] (first compound 0.16 µM, partner dose 0.4 µM)",cleaved PARP positive nuclei fraction,[1],70.3%
same,cleaved PARP positive nuclei fraction,[2],107%
same,cleaved PARP positive nuclei fraction,[3],418%
same,cleaved PARP positive nuclei fraction,[4],102%
same,cleaved PARP positive nuclei fraction,[5],46.6%
same,cleaved PARP positive nuclei fraction,[6],211%
same,cleaved PARP positive nuclei fraction,[7],105%
same,cleaved PARP positive nuclei fraction,[8],97.2%
same,cleaved PARP positive nuclei fraction,[9],112%
"NCC(=O)Nc1ccc(-n2nc(C(F)(F)F)cc2-c2ccc3c(ccc4ccccc43)c2)cc1 + COc1ccc2c(c1)CCC1C2CCC2(C)C(NCCCCCCN3C(=O)C=CC3=O)CCC12 [U73122] (first compound 1 µM, partner dose 0.4 µM)",cleaved PARP positive nuclei fraction,[1],279%
same,cleaved PARP positive nuclei fraction,[2],122%
same,cleaved PARP positive nuclei fraction,[3],90%
same,cleaved PARP positive nuclei fraction,[4],5480%
same,cleaved PARP positive nuclei fraction,[5],84%
same,cleaved PARP positive nuclei fraction,[6],180%
same,cleaved PARP positive nuclei fraction,[7],95.1%
same,cleaved PARP positive nuclei fraction,[8],140%
same,cleaved PARP positive nuclei fraction,[9],136%
"c1cc(-c2cnn3cc(-c4ccc(OCCN5CCCCC5)cc4)cnc23)ccn1 [Dorsomorphin] + Cn1cc(/C=C2\C(=O)Nc3cccnc32)c2ccccc21 [GW441756] (first compound 0.4 µM, partner dose 0.4 µM)",cleaved PARP positive nuclei fraction,[1],87.5%
same,cleaved PARP positive nuclei fraction,[2],39.2%
same,cleaved PARP positive nuclei fraction,[3],38.8%
same,cleaved PARP positive nuclei fraction,[4],360%
same,cleaved PARP positive nuclei fraction,[5],109%
same,cleaved PARP positive nuclei fraction,[6],54.1%
same,cleaved PARP positive nuclei fraction,[7],116%
same,cleaved PARP positive nuclei fraction,[8],64.2%
same,cleaved PARP positive nuclei fraction,[9],90.2%
"CN(C)S(=O)(=O)c1ccc2c(c1)/C(=C/c1cc3c([nH]1)CCCC3)C(=O)N2 + CCN(CC)CCCCNc1ncc2cc(-c3cc(OC)cc(OC)c3)c(NC(=O)NC(C)(C)C)nc2n1 [PD173074] (first compound 0.4 µM, partner dose 0.1 µM)",cleaved PARP positive nuclei fraction,[1],35.9%
same,cleaved PARP positive nuclei fraction,[2],395%
same,cleaved PARP positive nuclei fraction,[3],44.9%
same,cleaved PARP positive nuclei fraction,[4],72.1%
same,cleaved PARP positive nuclei fraction,[5],220%
same,cleaved PARP positive nuclei fraction,[6],66.9%
same,cleaved PARP positive nuclei fraction,[7],108%
same,cleaved PARP positive nuclei fraction,[8],97.1%
same,cleaved PARP positive nuclei fraction,[9],112%
"CN(C)S(=O)(=O)c1ccc2c(c1)/C(=C/c1cc3c([nH]1)CCCC3)C(=O)N2 + N#Cc1c(O)c2c(-c3ccc(-c4ccccc4O)cc3)csc2[nH]c1=O [A769662] (first compound 0.4 µM, partner dose 2 µM)",cleaved PARP positive nuclei fraction,[1],50.6%
same,cleaved PARP positive nuclei fraction,[2],49%
same,cleaved PARP positive nuclei fraction,[3],127%
same,cleaved PARP positive nuclei fraction,[4],36.3%
same,cleaved PARP positive nuclei fraction,[5],153%
same,cleaved PARP positive nuclei fraction,[6],39.5%
same,cleaved PARP positive nuclei fraction,[7],105%
same,cleaved PARP positive nuclei fraction,[8],112%
same,cleaved PARP positive nuclei fraction,[9],199%
"COc1cc2c(Oc3ccc4[nH]c(C)cc4c3F)ncnc2cc1OCCCN1CCCC1 [cediranib] + CCN(CC)CCCCNc1ncc2cc(-c3cc(OC)cc(OC)c3)c(NC(=O)NC(C)(C)C)nc2n1 [PD173074] (first compound 0.4 µM, partner dose 0.1 µM)",cleaved PARP positive nuclei fraction,[1],67.1%
same,cleaved PARP positive nuclei fraction,[2],107%
same,cleaved PARP positive nuclei fraction,[3],132%
same,cleaved PARP positive nuclei fraction,[4],79%
same,cleaved PARP positive nuclei fraction,[5],91.2%
same,cleaved PARP positive nuclei fraction,[6],96.7%
same,cleaved PARP positive nuclei fraction,[7],100%
same,cleaved PARP positive nuclei fraction,[8],19.9%
same,cleaved PARP positive nuclei fraction,[9],72.8%
"CN(NC(=O)CC(=O)NN(C)C(=S)c1ccccc1)C(=S)c1ccccc1 + COc1ccc(COc2ccc(Cc3cnc(N)nc3N)cc2OC)cc1 [GW2580] (first compound 0.006 µM, partner dose 1 µM)",cleaved PARP positive nuclei fraction,[1],136%
same,cleaved PARP positive nuclei fraction,[2],136%
same,cleaved PARP positive nuclei fraction,[3],364%
same,cleaved PARP positive nuclei fraction,[4],2190%
same,cleaved PARP positive nuclei fraction,[5],121%
same,cleaved PARP positive nuclei fraction,[6],59.4%
same,cleaved PARP positive nuclei fraction,[7],983%
same,cleaved PARP positive nuclei fraction,[8],260%
same,cleaved PARP positive nuclei fraction,[9],130%

# 4 records picked at random from the list so far:
smiles,measurement,setting,value
"CN(C)S(=O)(=O)c1ccc2c(c1)/C(=C/c1cc3c([nH]1)CCCC3)C(=O)N2 + CCN(CC)CCCCNc1ncc2cc(-c3cc(OC)cc(OC)c3)c(NC(=O)NC(C)(C)C)nc2n1 [PD173074] (first compound 0.4 µM, partner dose 0.1 µM)",cleaved PARP positive nuclei fraction,[5],220%
"NCC(=O)Nc1ccc(-n2nc(C(F)(F)F)cc2-c2ccc3c(ccc4ccccc43)c2)cc1 + COc1ccc2c(c1)CCC1C2CCC2(C)C(NCCCCCCN3C(=O)C=CC3=O)CCC12 [U73122] (first compound 1 µM, partner dose 0.4 µM)",cleaved PARP positive nuclei fraction,[1],279%
"c1cc(-c2cnn3cc(-c4ccc(OCCN5CCCCC5)cc4)cnc23)ccn1 [Dorsomorphin] + Cn1cc(/C=C2\C(=O)Nc3cccnc32)c2ccccc21 [GW441756] (first compound 0.4 µM, partner dose 0.4 µM)",cleaved PARP positive nuclei fraction,[7],116%
"CCc1ccc(CCOc2ccc(CC3SC(=O)NC3=O)cc2)nc1 (configuration not stated) [pioglitazone] + CCN(CC)CCCCNc1ncc2cc(-c3cc(OC)cc(OC)c3)c(NC(=O)NC(C)(C)C)nc2n1 [PD173074] (first compound 2 µM, partner dose 0.1 µM)",cleaved PARP positive nuclei fraction,[1],163%
